According to publication PMC8308721 (Pharmaceutics, 2021):

What was measured:
female CD-1 mice = assay: Hot-plate test; assay type: in vivo, mouse; conditions: morphine s.c. 10 mg/kg
Procedure: Animal use and procedures were in accordance with the guidelines of The University of British Columbia animal care committee and the Canadian Council for Animal Care (CCAC, Protocol code: A17-0128, approval date: 30 August 2018). Experiments involved adult female CD-1 mice (25–30 g) housed under a 12 h light/dark cycle and had ad libitum access to rodent chow and water. Mice were allowed an acclimatization period of at least one week in the animal facility before experiments. Subcutaneous (s.c.) or intraperitoneal (i.p.) injections of drugs or vehicles were administered to animals at a volume of 10 mL/kg. […]
A commercially available hot-plate analgesia meter consisting of a round aluminum surface with (25 cm diameter) from Harvard Apparatus (Holliston, MA, USA) was used. […] Thereafter, the baseline latency of each animal was measured on the hot surface (52.0 ± 0.1 °C, 30 s cut-off time to prevent tissue damage) until a nociceptive response was induced. […] The %MPE for each animal was calculated using this equation: %MPE = (LR − BR)/(MR − BR)100%, where LR, MR, and BR represent measured, maximum (30 s), and baseline (~5 s) response time, respectively. The AUC for each animal was calculated from the %MPE time courses using this equation: AUC = (%MPE(Tp1) + %MPE(Tp2))·(Tp2 − Tp1)/2, where Tp represents the time interval between adjacent time points on the curve. […]

[1] = cited from earlier work

For `CN1CC[C@]23c4c5ccc(O)c4O[C@H]2[C@@H](O)C=C[C@H]3[C@H]1C5` [morphine], the “Antinociception AUC” value (female CD-1 mice) is listed as 138 ± 12 %MPE·h and the maximum tolerated dose [1] is listed as 130 mg/kg.
